From patent publication US20080132505A1 (Glaxo Group Limited, priority 2004, published 2008)
Some results were stated once for a whole list of compounds, not compound by compound.

Chains of the proteins cited; added tags and fusions are not shown.
UniProt P21554, whole entry: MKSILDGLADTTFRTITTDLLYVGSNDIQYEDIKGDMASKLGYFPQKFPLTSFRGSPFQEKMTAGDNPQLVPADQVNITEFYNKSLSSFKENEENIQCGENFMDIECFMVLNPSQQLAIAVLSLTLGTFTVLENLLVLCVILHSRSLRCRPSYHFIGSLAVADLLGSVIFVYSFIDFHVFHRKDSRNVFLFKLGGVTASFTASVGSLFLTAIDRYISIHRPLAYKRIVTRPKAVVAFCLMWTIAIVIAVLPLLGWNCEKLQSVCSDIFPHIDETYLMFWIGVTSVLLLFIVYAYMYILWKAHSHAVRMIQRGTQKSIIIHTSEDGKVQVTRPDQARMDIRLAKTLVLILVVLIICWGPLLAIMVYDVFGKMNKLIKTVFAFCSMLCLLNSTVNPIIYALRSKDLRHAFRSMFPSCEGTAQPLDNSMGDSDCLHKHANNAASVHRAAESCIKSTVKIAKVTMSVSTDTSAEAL

Biological target: human cannabinoid CB1 receptor (Homo sapiens, UniProt P21554)
Test: Cannabinoid CB1 receptor agonist activity (yeast reporter assay, FDGlu fluorescence)
Assay type: cell-based
Conditions: read-out: EC50 value at the cloned human cannabinoid CB1 receptor

Structure (SMILES): O=C(NCc1ccncc1)c1cnc(Nc2cccc(Cl)c2)cc1C(F)(F)F [Example 380, 2-(3-Chlorophenylamino)-4-trifluoromethylpyridin-5-carboxylic acid (pyridin-4-ylmethyl) amide]
- EC50: > 30 µM

Structure (SMILES): O=C(NCc1ccccc1)c1cnc(Nc2cccc(Cl)c2)cc1C(F)(F)F [Example 381, 2-(3-Chlorophenylamino)-4-trifluoromethylpyridine-5-carboxylic acid benzylamide]
- EC50: > 30 µM

Structure (SMILES): CC(C)c1cc(Nc2cccc(Cl)c2)ncc1C(=O)NCc1ccccc1 [Example 383, N-Benzyl-6-(3-chloro-phenylamino)-4-isopropyl-nicotinamide]
- EC50: > 30 µM

Structure (SMILES): CC(C)c1cc(Nc2cccc(Cl)c2)ncc1C(=O)NCc1ccc(C#N)cc1 [Example 384, 6-(3-Chloro-phenylamino)-N-(4-cyano-benzyl)-4-isopropyl-nicotinamide]
- EC50: > 30 µM

Structure (SMILES): COc1ccc(CNC(=O)c2cnc(Nc3cccc(Cl)c3)cc2C(C)C)cc1 [Example 385, 6-(3-Chloro-phenylamino)-4-isopropyl-N-(4-methoxy-benzyl)-nicotinamide]
- EC50: > 30 µM

Structure (SMILES): CC(C)c1cc(Nc2cccc(Cl)c2)ncc1C(=O)NCc1ccc(F)c(F)c1 [Example 386, 6-(3-Chloro-phenylamino)-N-(3,4-difluoro-benzyl)-4-isopropyl-nicotinamide]
- EC50: > 30 µM

Structure (SMILES): CC(C)c1cc(Nc2cccc(Cl)c2)ncc1C(=O)NCc1ccc(C(N)=O)cc1 [Example 387, N-(4-Carbamoyl-benzyl)-6-(3-chloro-phenylamino)-4-isopropyl-nicotinamide]
- EC50: > 30 µM

Structure (SMILES): CC(C)c1cc(Nc2cccc(Cl)c2)ncc1C(=O)NCc1ccc(F)cc1F [Example 388, 6-(3-Chloro-phenylamino)-N-(2,4-difluoro-benzyl)-4-isopropyl-nicotinamide]
- EC50: > 30 µM

Structure (SMILES): CC(C)c1cc(Nc2cccc(Cl)c2)ncc1C(=O)NCc1ccc(S(C)(=O)=O)cc1 [Example 389, 6-(3-Chloro-phenylamino)-4-isopropyl-N-(4-methanesulfonyl-benzyl)-nicotinamide]
- EC50: > 30 µM

Structure (SMILES): CC(=O)Nc1ccc(CNC(=O)c2cnc(Nc3cccc(Cl)c3)cc2C(C)C)cc1 [Example 390, N-(4-Acetylamino-benzyl)-6-(3-chloro-phenylamino)-4-isopropyl-nicotinamide]
- EC50: > 30 µM

Structure (SMILES): CC(C)c1cc(Nc2cccc(Cl)c2)ncc1C(=O)NCc1ccc(NS(C)(=O)=O)cc1 [Example 391, 6-(3-Chloro-phenylamino)-4-isopropyl-N-(4-methane-sulfonylamino-benzyl)-nicotinamide]
- EC50: > 30 µM

Structure (SMILES): CNC(=O)c1ccc(CNC(=O)c2cnc(Nc3cccc(Cl)c3)cc2C(C)C)cc1 [Example 392, 6-(3-Chloro-phenylamino)-4-isopropyl-N-(4-methylcarbamoyl-benzyl)-nicotinamide]
- EC50: > 30 µM

Structure (SMILES): CC(C)c1cc(Nc2cccc(C(F)(F)F)c2)ncc1C(=O)NCc1ccc(F)cc1 [Example 393, N-(4-Fluoro-benzyl)-4-isopropyl-6-(3-trifluoromethyl-phenylamino)-nicotinamide]
- EC50: > 30 µM

Structure (SMILES): Cc1cccc(Nc2cc(C(C)C)c(C(=O)NCc3ccc(F)cc3)cn2)c1C#N [Example 395, 6-(2-Cyano-3-methyl-phenylamino)-N-(4-fluoro-benzyl)-4-isopropyl-nicotinamide]
- EC50: > 30 µM

Structure (SMILES): O=C(NCc1ncc[nH]1)c1cnc(Nc2cccc(Cl)c2)cc1C(F)(F)F [Example 422, 6-(3-Chloro-phenylamino)-N-(1H-imidazol-2-ylmethyl)-4-trifluoromethyl-nicotinamide]
- EC50: > 30 µM

Structure (SMILES): CC(C)c1cc(Nc2cccc(Cl)c2)ncc1C(=O)NCc1ccncn1 [Example 446, 6-(3-Chloro-phenylamino)-4-isopropyl-N-pyrimidin-4-ylmethyl-nicotinamide]
- EC50: > 30 µM

Structure (SMILES): CC(C)c1cc(Nc2cccc(Cl)c2)ncc1C(=O)NCc1cnccn1 [Example 447, 6-(3-Chloro-phenylamino)-4-isopropyl-N-pyrazin-2-ylmethyl-nicotinamide]
- EC50: > 30 µM

Structure (SMILES): Cc1ccc(CNC(=O)c2cnc(Nc3cccc(Cl)c3)cc2C(C)C)cn1 [Example 448, 6-(3-Chloro-phenylamino)-4-isopropyl-N-(6-methyl-pyridin-3-ylmethyl)-nicotinamide]
- EC50: > 30 µM

Structure (SMILES): Cc1ccc(C(F)(F)F)cc1Nc1cc(C(C)C)c(C(=O)NCc2ccc(F)cc2)cn1 [Example 456]
- EC50: > 30 µM

Structure (SMILES): O=C(NCc1ccncc1)c1ccc(Nc2cccc(Cl)c2)nc1C(F)(F)F [Example 457, 6-(3-Chloro-phenylamino)-N-(pyridin-4-ylmethyl)-2-trifluoromethyl-nicotinamide]
- EC50: > 30 µM

Structure (SMILES): CC(C)c1cc(Nc2cccc(Cl)c2)ncc1C(=O)NCC1(O)CCOCC1 [Example 561, 6-(3-Chloro-phenylamino)-N-(4-hydroxy-tetrahydro-pyran-4-ylmethyl)-4-isopropyl-nicotinamide]
- EC50: > 30 µM

Structure (SMILES): O=C(NC1CCC1)c1cnc(Nc2cccc(Cl)c2Cl)cc1C(F)(F)F [Example 562, 6-(2,3-Dichloro-phenylamino)-N-(cyclobutyl)-4-trifluoromethyl-nicotinamide]
- EC50: > 30 µM

Structure (SMILES): O=C1CC(CNC(=O)c2cnc(Nc3ccc(Cl)cc3Cl)cc2C(F)(F)F)CN1 (centres unmarked) [Example 654, N-(5-Oxo-pyrrolidin-3-ylmethyl)-6-(2,4-dichloro-phenylamino)-4-trifluoromethyl-nicotinamide]
- EC50: > 30 µM

Structure (SMILES): CC1(C)OCC(CNC(=O)c2cnc(Nc3ccc(Cl)cc3Cl)cc2C(F)(F)F)O1 (centres unmarked) [Example 657, N-(2,2-dimethyl-[1,3]dioxolan-4-ylmethyl)-6-(2,4-dichloro-phenylamino)-4-trifluoromethyl-nicotinamide]
- EC50: > 30 µM

Structure (SMILES): O=C(NCC(O)CO)c1cnc(Nc2cccc(Cl)c2)cc1C(F)(F)F (centres unmarked) [Example 660, N-(2,3-Dihydroxy-propyl)-6-(3-chloro-phenylamino)-4-trifluoromethyl-nicotinamide]
- EC50: > 30 µM

Structure (SMILES): O=C(NCC(O)CO)c1cnc(Nc2ccc(Cl)cc2Cl)cc1C(F)(F)F (centres unmarked) [Example 661, N-(2,3-Dihydroxy-propyl)-6-(2,4-dichloro-phenylamino)-4-trifluoromethyl-nicotinamide]
- EC50: > 30 µM

Structure (SMILES): Cc1ccc(C#N)c(Nc2cc(C(C)C)c(C(=O)NCC3CCOCC3)cn2)c1 [Example 680, 6-(2-cyano-5-methyl-phenylamino)-4-isopropyl-N-(tetrahydro-pyran-4-ylmethyl)-nicotinamide]
- EC50: > 30 µM

Structure (SMILES): CC(C)c1cc(Nc2ccc(C(F)(F)F)cc2Cl)ncc1C(=O)NCC1CCCC1 [Example 756, 6-(2-Chloro-4-trifluoromethyl-phenylamino)-N-cyclopentylmethyl-4-isopropyl-nicotinamide]
- EC50: > 30 µM

Structure (SMILES): CC(C)c1cc(Nc2ccc(F)c(F)c2)ncc1C(=O)NCC1CCOCC1 [Example 757, 6-(3,4-Difluoro-phenylamino)-4-isopropyl-N-(tetrahydropyran-4-ylmethyl)-nicotinamide]
- EC50: > 30 µM

Structure (SMILES): CC(C)c1cc(Nc2ccc(Cl)c(C(F)(F)F)c2)ncc1C(=O)NCC1CCOCC1 [Example 758, 6-(4-Chloro-3-trifluoromethyl-phenylamino)-4-isopropyl-N-(tetrahydropyran-4-ylmethyl)-nicotinamide]
- EC50: > 30 µM

Structure (SMILES): Cc1ccc(Nc2cc(C(C)C)c(C(=O)NCC3CCOCC3)cn2)cc1C(F)(F)F [Example 759, 6-(4-Methyl-3-trifluoromethyl-phenylamino)-4-isopropyl-N-(tetrahydropyran-4-ylmethyl)-nicotinamide]
- EC50: > 30 µM

Structure (SMILES): CC(C)c1cc(Nc2ccc(OC(F)(F)F)cc2Cl)ncc1C(=O)NCC1CCOCC1 [Example 760, 6-(2-Chloro-4-trifluoromethoxy-phenylamino)-4-isopropyl-N-(tetrahydropyran-4-ylmethyl)-nicotinamide]
- EC50: > 30 µM

Structure (SMILES): Cc1cccc(Nc2cc(C(C)C)c(C(=O)NCC3CCOCC3)cn2)c1C#N [Example 761, 6-(2-Cyano-3-methyl-phenylamino)-4-isopropyl-N-(tetrahydropyran-4-ylmethyl)-nicotinamide]
- EC50: > 30 µM

Structure (SMILES): CC(C)c1cc(Nc2cccc(Cl)c2C#N)ncc1C(=O)NCC1CCOCC1 [Example 762, 6-(3-Chloro-2-cyano-phenylamino)-4-isopropyl-N-(tetrahydropyran-4-ylmethyl)-nicotinamide]
- EC50: > 30 µM

Structure (SMILES): CC(C)(O)c1cc(Nc2cccc(Cl)c2)ncc1C(=O)NCC1CCOCC1 [Example 763, 6-(3-Chloro-phenylamino)-4(1-hydroxy-methyl-ethyl)-N-(tetrahydropyran-4-ylmethyl)-nicotinamide]
- EC50: > 30 µM
